The target of this data set is hSSB2 (C-terminally His-tagged) (Homo sapiens) (UniProt Q96AH0). Nature of the data set: fluorescence anisotropy. Particulars: Anisotropy: standard LLPS buffer without MgCl2 (50 mM KCl standard), 25 C, 10 nM probe, recombinant protein, protein details: C-terminal His, label: 3'-fluorescein, single-stranded DNA.

The chains behind the UniProt entries cited, without tags or fusion partners. Where a name states a change or a piece, a line headed by the entry shows the natural chain unless it says otherwise.
UniProt Q96AH0: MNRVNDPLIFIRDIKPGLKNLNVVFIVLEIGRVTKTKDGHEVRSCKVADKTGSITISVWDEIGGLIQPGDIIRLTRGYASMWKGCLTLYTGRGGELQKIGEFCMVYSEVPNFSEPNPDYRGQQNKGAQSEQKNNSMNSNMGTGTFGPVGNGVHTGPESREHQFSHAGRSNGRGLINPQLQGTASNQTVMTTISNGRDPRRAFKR

The exact form of at least one protein or probe is not confirmed. A negative result means that nothing was seen under these conditions.

The values that follow come from publication PMC10955726.

With “ATTTTTGCGGATGGCTTAGAGCTTAATTGCGCAACG [ss36 DNA]”, the Kd (250 mM K-glutamate, Hill n 2.8) stood at 3.4 µM. Further, the binding result reads like this: (250 mM KCl, binding practically eliminated) “no binding”; (250 mM MgCl2, binding practically eliminated) “no binding”.
